The supplement of paper PMC4683952
Some of the results follow. No stated cut-off is given here; in the data, active = 2 or more and inactive = the rest. Most values lie within the scatter of the assay; repeated measurements hardly agree.

Tested on: Lgr5 (MarsCy1-Lgr5-EGFP, U2OS)
Test: cell-surface Lgr5 expression (SCi1 fluorescence, background-subtracted) relative to WT DMSO (fold of DMSO control); higher = more Lgr5 at the plasma membrane
Details: U2OS MarsCy1-Lgr5-EGFP stable; treatment time: overnight; library: ActiProbe-5K (TimTec); 25 µM

cell-surface Lgr5 expression, inactive:
COC(=O)c1c(N2C(=N)SCC2=O)sc2c1CCCC2 0.975
Cc1c2cc(O)c(=O)cc-2oc2cc(O)c(O)cc12 0.823
CN(C)c1cc(N2CCOCC2)nc(C#N)n1 1.16
O.O=S(=O)([O-])c1cc(O)c(O)c(S(=O)(=O)[O-])c1.[Na+].[Na+] 1.06
O=[N+]([O-])[C-]([N+](=O)[O-])[S+](c1ccccc1)c1ccccc1 1.05
Brc1ccc(-c2nc(-c3cccnc3)no2)cc1 0.881
Clc1n[nH]c2ccccc12 0.881
C=CCOc1nc(N2CCCCC2)nc(N2CCOCC2)n1 1.04
CCCOC(=O)CCNc1n[nH]c(=O)[nH]c1=O 1.27
O=C(O)COCCC12CC3CC(CC(C3)C1)C2 1.28
O=C(CSc1nc2ccccc2s1)C1CC1 0.854
O=C(OCCCl)Oc1c(Cl)cc2oc(=O)sc2c1Br 1.32
Cc1cnc2c(ccc3c(C)c(C)cnc32)c1C 0.402
N#Cc1sc(N)c(C#N)c1N 1.49
CNC(=S)N1CCCCC1 1.45
CCCCC1NC(C(=O)O)CS1 (configuration not stated) 1.22
CC1CC(NC(=O)NCCCCCCNC(=O)NC2CC(C)CC(C)(C)C2)CC(C)(C)C1 (configuration not stated) 1.18
COc1ccc(N(C)S(=O)(=O)C2CCS(=O)(=O)C2)cc1 (configuration not stated) 1.33
Cc1sc2ccccc2[n+]1CCCS(=O)(=O)[O-] 1.27
N#Cc1c(SCC(=O)c2ccc(Cl)s2)sc2c(O)cc(=O)[nH]c12 1.04
O=S(=O)(c1ccccc1)N1CCc2ccccc21 1.2
Cc1cc[n+](Cc2ccccn2)c(N)c1.[Br-] 1.54
Clc1ccc2c(SCc3ccon3)ccnc2c1 0.983
O=C1NC(=S)N2C(=O)CCC12 (configuration not stated) 1.3
Clc1nc2ccccc2nc1-c1ccccc1 1.32
CCCOC(=O)C1=C(C)NC2=C(C(=O)CC(C)(C)C2)C1c1ccc(C)o1 (configuration not stated) 1.09
Cc1[nH]c(=O)n(C(C)(C)C)c(=O)c1C 1.57
CCOC(=O)N1CCCC1C(=O)O (configuration not stated) 0.975
O=C(N/N=C\c1ccco1)c1cnccn1 0.943
CC1=Nc2ccccc2NC(C)(C)C1 1.17
c1ccc(CSc2nnc(C34CC5CC(CC(C5)C3)C4)o2)nc1 1.28
N#Cc1c(SCC(=O)Nc2nccs2)sc2c(O)cc(=O)[nH]c12 1.38
OC[C@@H]1Cc2ccccc2CN1 1.24
c1cc(CNc2nc(-c3nonc3NC3CC3)no2)ccn1 1.07
C/N=C1\S/C(=C/c2ccc(C)o2)C(=O)N1C 1.13
O=C1C2CC=C(Cl)CC2C(=O)N1CCN1CCCCC1 (configuration not stated) 1.1
O=[N+]([O-])c1cc(/C=N\n2cnnc2)c2c(c1)COCO2 1.02
c1ccc(-n2nnnc2-n2cnc3ccccc32)cc1 1.05
FC(F)(F)c1nnc2c3ccccc3c(-n3ccnc3)nn12 1.27
c1ccc(-c2cnc(-c3cccc4ccccc34)o2)cc1 1.07
CN(C)c1ccc(C(c2ccc(N(C)C)cc2)c2ccc(N(C)C)cc2)cc1 0.119
CN(C)S(=O)(=O)Nc1cccc([N+](=O)[O-])c1 1.08
C=CCC1(CC=C)CNCCN1.Cl.Cl 1.5
O=C1NC(=S)S/C1=C/N1CCOCC1 0.81
Cc1nc(-c2nonc2N)no1 1.07
CN(C)CCCN1C(=O)C(O)=C(C(=O)c2cccs2)C1c1ccco1 (configuration not stated) 1.17
CC1=CS(=O)(=O)C(C)=CC1=O 0.716
c1ccc(/N=c2\scc(-c3ccccc3)n2-c2ccccc2)cc1 1.6
O=C(c1nsc(Cl)c1Cl)N1CCCCC1 1.55
CCCCCCC/C=C(\Cl)c1c(C)[nH]c(C(=O)OCC)c1C 0.802
O=[N+]([O-])c1ccc2nccnc2c1 1.52
O=S(=O)(CCOc1ccccc1)c1nc2ccccc2[nH]1 1.65
O=c1c2n[nH]c3nonc3nc-2c2ccccc12 0.968
OCCNCc1ccco1 1.23
Cn1c(-c2ccccc2Br)n[nH]c1=S 1.05
C(=C/c1ccc2c(c1)OCO2)/C=N\c1ccc(N2CCOCC2)cc1 0.976
O=C([O-])COC1CCCCC1c1ccco1 (configuration not stated) 1.3
N#Cc1cc2c([nH]c1=S)CCCC2 1.03
CCC(C)C(=O)Nc1nnc(CC(C)C)s1 (configuration not stated) 1.21
CC(=O)OCC1=C(C(=O)O)N2C(=O)C(NC(=O)C(C)n3cc([N+](=O)[O-])cn3)C2SC1 (configuration not stated) 1.23
COc1cc(OC)c(Br)c(OC)c1 1.07
Cc1ccc(/C=C2\SC(N3CCC(C)CC3)=NC2=O)o1 1.31
CN(C)c1ncnc2[nH]cnc12 1.07
Cc1ccc(C2C3=C(CC(C)(C)CC3=O)OC3=C2C(=O)CC(C)(C)C3)s1 1.45
c1ccc(CNc2nnns2)cc1 1.17
NNC(=O)C(=O)Nc1nccs1 1.07
Sc1nnc(-c2ccco2)n1/N=C/c1ccccn1 1.01
Cc1noc(C)c1NC(=O)c1cc(C)n(C(F)F)n1 1.07
O=c1[nH]c(=S)[nH]c2nc[nH]c12 0.982
C1COc2cc(NC(CC3C(N=C(S3)/N=C(/N)N)=O)=O)ccc2O1 (configuration not stated) 1.2
O=S(=O)(NCC1CCCO1)c1ccc(Cl)c2ccccc12 (configuration not stated) 1.3
Fc1ccc2c(c1)C1OCCC1C(c1ccccc1)N2 (configuration not stated) 0.969

Among those listed so far, these have a COOH group:
cell-surface Lgr5 expression, inactive:
O=C(O)COCCC12CC3CC(CC(C3)C1)C2 1.28
CCCCC1NC(C(=O)O)CS1 (configuration not stated) 1.22
CCOC(=O)N1CCCC1C(=O)O (configuration not stated) 0.975
CC(=O)OCC1=C(C(=O)O)N2C(=O)C(NC(=O)C(C)n3cc([N+](=O)[O-])cn3)C2SC1 (configuration not stated) 1.23
